Laboratory results: the supplement of paper PMC12823440, “Inhibitors supercharge kinase turnover through native proteolytic circuits” (Nature, 2025)
Counter-ions that a name gives are not always drawn. This is one part of the list. The calls rarely recur for the same compound in another form.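 Kinases, fused to nanoluciferase, were expressed in K562 cells; luminescence was measured every 4 h from 2 to 18 h as percent of control (DMSO = 100%, positive control = 0%). A time point is decreased if signal falls significantly (2 sigma). Hits were called by the authors by a rule that is not shown; the count of time points alone does not decide it.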

Sequences of proteins named here, by UniProt entry; tags and fusion partners are left off. A change or cut given only in a name is not applied to a line headed by its entry.
UniProt Q15208: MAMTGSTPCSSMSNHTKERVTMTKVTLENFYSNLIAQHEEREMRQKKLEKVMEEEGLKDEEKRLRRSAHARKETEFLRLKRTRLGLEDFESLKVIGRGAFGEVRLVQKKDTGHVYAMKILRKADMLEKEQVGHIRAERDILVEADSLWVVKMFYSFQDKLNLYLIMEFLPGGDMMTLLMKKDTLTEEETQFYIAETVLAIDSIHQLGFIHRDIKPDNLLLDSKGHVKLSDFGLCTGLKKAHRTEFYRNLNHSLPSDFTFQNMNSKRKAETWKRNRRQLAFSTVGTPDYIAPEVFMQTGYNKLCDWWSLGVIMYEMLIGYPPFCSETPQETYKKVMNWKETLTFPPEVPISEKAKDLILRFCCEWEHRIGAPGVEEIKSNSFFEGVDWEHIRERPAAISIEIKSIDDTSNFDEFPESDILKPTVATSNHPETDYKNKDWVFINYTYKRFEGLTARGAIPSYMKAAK
UniProt P42680: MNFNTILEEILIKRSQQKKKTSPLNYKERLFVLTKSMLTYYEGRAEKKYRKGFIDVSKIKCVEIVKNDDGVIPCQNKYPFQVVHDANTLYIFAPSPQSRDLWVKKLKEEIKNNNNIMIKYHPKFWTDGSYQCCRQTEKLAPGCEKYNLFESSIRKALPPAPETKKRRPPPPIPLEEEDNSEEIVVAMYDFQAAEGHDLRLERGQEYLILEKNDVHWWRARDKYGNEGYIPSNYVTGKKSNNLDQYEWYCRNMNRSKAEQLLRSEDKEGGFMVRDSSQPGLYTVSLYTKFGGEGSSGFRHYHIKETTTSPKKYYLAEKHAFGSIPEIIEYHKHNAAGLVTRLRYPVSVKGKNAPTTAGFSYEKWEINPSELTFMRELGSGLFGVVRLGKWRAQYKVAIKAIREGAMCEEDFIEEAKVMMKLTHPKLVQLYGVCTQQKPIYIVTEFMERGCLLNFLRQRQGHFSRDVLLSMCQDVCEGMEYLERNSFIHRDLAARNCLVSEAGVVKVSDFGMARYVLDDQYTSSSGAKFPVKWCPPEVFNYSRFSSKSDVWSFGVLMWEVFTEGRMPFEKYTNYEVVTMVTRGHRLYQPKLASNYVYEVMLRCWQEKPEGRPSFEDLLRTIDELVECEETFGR
UniProt P29597: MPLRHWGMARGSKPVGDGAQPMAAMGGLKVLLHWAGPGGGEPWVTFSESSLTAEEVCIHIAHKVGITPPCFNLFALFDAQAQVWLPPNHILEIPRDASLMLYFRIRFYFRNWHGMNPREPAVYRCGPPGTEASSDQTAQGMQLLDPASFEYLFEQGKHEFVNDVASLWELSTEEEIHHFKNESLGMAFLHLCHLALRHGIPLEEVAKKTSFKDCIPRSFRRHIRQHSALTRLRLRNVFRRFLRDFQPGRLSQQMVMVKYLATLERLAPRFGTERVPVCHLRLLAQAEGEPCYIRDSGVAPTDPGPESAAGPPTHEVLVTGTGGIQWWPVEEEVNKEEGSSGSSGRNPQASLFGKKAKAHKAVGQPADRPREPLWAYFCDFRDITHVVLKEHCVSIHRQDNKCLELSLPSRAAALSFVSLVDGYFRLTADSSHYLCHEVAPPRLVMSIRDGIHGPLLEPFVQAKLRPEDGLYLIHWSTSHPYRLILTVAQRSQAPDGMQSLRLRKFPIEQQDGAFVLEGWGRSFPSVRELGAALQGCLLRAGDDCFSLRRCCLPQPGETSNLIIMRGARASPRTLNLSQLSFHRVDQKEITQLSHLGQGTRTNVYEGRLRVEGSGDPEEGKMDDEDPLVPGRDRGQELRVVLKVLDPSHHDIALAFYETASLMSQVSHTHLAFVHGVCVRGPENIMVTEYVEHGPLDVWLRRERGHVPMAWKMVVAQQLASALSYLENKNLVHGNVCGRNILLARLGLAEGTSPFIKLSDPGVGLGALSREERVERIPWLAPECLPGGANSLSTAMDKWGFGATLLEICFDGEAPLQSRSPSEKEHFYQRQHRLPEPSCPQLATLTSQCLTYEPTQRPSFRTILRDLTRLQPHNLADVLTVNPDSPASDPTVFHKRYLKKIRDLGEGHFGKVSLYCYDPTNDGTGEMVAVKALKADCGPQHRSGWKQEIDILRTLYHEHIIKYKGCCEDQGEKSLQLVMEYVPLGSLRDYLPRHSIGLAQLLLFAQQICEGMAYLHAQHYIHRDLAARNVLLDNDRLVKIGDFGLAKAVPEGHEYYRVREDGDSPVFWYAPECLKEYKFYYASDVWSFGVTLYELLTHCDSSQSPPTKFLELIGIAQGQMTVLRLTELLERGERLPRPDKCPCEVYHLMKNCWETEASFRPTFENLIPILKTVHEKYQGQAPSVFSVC
UniProt Q6PHR2: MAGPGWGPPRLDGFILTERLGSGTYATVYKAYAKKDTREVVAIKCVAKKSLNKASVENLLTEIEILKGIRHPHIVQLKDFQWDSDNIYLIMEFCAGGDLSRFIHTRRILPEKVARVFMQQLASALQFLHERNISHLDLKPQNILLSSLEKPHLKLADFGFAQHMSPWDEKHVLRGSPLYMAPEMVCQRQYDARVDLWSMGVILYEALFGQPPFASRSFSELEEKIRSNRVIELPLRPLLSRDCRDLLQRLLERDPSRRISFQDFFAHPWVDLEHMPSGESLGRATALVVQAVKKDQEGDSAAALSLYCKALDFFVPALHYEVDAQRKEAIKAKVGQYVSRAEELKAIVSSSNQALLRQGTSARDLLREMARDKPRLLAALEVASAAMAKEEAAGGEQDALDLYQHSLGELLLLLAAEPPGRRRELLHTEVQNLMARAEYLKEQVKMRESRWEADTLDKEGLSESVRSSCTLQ
UniProt P07947, whole entry, looked up: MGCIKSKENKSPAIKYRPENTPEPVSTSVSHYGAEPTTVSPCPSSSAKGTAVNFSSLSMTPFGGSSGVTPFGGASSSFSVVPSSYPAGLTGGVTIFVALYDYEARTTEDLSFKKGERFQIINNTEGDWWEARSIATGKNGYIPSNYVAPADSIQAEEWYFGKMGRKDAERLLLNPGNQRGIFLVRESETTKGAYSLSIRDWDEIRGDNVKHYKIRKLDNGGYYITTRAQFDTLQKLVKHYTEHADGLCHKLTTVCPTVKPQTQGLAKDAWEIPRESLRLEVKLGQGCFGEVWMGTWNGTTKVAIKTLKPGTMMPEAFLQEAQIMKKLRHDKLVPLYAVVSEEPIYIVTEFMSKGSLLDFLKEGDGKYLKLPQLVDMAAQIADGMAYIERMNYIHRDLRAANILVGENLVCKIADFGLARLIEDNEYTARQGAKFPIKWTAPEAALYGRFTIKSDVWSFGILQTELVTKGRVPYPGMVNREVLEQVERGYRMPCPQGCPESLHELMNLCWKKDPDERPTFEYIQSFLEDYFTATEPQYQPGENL
UniProt P43403: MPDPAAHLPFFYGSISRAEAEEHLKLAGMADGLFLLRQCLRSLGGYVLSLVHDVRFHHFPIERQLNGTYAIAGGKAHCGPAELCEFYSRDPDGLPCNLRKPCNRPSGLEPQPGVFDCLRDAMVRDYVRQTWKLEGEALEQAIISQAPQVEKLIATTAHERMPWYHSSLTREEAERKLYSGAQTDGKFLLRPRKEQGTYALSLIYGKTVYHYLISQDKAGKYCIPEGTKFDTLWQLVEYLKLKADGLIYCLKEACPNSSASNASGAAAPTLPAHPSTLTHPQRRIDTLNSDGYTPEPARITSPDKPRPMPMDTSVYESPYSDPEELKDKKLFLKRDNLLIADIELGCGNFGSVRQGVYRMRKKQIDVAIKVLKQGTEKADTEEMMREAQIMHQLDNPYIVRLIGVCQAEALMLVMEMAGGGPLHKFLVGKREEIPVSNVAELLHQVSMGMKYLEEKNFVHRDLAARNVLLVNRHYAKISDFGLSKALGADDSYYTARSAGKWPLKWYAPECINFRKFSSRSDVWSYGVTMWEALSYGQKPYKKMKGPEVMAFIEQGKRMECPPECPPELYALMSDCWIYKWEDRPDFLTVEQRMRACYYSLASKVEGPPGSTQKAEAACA
UniProt P00519, whole entry: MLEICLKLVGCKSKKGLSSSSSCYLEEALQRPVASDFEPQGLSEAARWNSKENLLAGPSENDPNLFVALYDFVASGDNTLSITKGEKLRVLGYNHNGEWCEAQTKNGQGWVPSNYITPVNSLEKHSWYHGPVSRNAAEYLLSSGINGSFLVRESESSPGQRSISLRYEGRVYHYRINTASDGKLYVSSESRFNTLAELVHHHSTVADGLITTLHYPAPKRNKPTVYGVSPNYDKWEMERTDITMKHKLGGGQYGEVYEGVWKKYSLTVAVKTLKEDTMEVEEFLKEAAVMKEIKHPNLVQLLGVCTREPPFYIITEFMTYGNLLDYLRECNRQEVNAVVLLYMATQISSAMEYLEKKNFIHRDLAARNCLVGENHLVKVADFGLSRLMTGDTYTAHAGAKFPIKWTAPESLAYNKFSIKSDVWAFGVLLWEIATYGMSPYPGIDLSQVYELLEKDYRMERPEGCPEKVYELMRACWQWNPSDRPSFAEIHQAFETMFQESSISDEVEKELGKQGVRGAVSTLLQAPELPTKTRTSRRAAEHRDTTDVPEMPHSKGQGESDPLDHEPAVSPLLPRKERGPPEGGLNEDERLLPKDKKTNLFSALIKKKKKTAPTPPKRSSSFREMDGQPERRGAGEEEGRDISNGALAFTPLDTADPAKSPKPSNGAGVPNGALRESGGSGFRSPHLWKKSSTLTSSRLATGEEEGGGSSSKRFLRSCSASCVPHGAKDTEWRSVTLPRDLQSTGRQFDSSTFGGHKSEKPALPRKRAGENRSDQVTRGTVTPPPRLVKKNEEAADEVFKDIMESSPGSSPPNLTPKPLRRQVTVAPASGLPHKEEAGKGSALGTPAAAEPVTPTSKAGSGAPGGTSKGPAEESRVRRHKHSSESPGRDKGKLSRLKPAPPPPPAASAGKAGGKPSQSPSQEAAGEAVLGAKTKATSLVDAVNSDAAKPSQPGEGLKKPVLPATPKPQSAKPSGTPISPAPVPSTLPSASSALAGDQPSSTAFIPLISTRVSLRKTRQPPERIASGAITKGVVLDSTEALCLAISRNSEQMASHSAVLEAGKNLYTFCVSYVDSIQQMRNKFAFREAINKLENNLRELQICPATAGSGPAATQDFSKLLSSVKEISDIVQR
UniProt P31749: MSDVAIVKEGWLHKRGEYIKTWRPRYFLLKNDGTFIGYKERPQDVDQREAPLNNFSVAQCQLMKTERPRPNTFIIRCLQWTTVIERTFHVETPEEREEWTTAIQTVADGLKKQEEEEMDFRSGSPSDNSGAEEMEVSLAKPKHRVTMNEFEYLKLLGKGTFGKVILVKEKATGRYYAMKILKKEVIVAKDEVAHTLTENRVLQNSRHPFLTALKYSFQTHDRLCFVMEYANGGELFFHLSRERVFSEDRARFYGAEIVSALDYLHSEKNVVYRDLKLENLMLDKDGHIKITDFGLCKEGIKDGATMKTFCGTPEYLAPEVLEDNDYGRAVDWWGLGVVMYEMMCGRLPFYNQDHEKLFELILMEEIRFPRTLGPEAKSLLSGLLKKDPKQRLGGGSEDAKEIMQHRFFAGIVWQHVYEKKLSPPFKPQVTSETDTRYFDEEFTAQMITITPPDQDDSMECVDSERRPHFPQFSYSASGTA

Key:
Details in all cases: K562; 2-18 h
STK38 = STK38 (UniProt Q15208); assay: kinase-Nluc reporter destabilization hit call (1 = scored as downregulated) (binary); higher = compound decreases kinase abundance
SYK = SYK (UniProt P43405); assay: as above
TEC = TEC (UniProt P42680); assay: as above
TYK2 = TYK2 (UniProt P29597); assay: as above
ULK3 = ULK3 (UniProt Q6PHR2); assay: as above
YES1 = YES1 (UniProt P07947); assay: as above
ZAK = ZAK (UniProt Q9NYL2); assay: as above
ZAP70 = ZAP70 (UniProt P43403); assay: as above
ABL1 = ABL1 (UniProt P00519); assay: number of time points (of 5) at which kinase-Nluc abundance scored as decreased, DMSO-normalised (count); higher = more persistent destabilization
AKT1 = AKT1 (UniProt P31749); assay: as above

SMILES	kinase-Nluc reporter destabilization hit call (STK38)	kinase-Nluc reporter destabilization hit call (SYK)	kinase-Nluc reporter destabilization hit call (TEC)	kinase-Nluc reporter destabilization hit call (TYK2)	kinase-Nluc reporter destabilization hit call (ULK3)	kinase-Nluc reporter destabilization hit call (YES1)	kinase-Nluc reporter destabilization hit call (ZAK)	kinase-Nluc reporter destabilization hit call (ZAP70)	number of time points (ABL1)	number of time points (AKT1)
O=C(C#Cc1ccccc1)c1cccc([N+](=O)[O-])c1 (10 µM)	inactive: 0	inactive: 0	inactive: 0	inactive: 0	inactive: 0	inactive: 0	inactive: 0	inactive: 0	0	0
CC(C)(Oc1ccc(Cl)cc1)C(=O)Nc1ccc(OCc2ccc(C#N)cc2)cc1 [AMPK activator 4] (10 µM)	inactive: 0	inactive: 0	inactive: 0	inactive: 0	inactive: 0	inactive: 0	inactive: 0	inactive: 0	0	0
COc1c(O)cc(O)c2c(=O)cc(-c3ccccc3)oc12 [Wogonin] (10 µM)	inactive: 0	inactive: 0	inactive: 0	inactive: 0	inactive: 0	inactive: 0	inactive: 0	inactive: 0	0	0
CCCS(=O)(=O)N[C@H]1C[C@@H](N(C)c2ncnc3[nH]ccc23)C1 [Abrocitinib] (10 µM)	inactive: 0	inactive: 0	inactive: 0	inactive: 0	inactive: 0	inactive: 0	inactive: 0	inactive: 0	0	0
CCOC(=O)c1c(Nc2ccccc2Cl)oc(/C=C2\C=Nc3ncccc32)c1O (10 µM)	inactive: 0	inactive: 0	inactive: 0	inactive: 0	inactive: 0	inactive: 0	inactive: 0	inactive: 0	0	0
CC(C)n1c(CO)nc2c(F)cc(-c3nc(Nc4ccc(CN5CCNCC5)cn4)ncc3F)cc21 (10 µM)	inactive: 0	inactive: 0	inactive: 0	inactive: 0	inactive: 0	inactive: 0	inactive: 0	inactive: 0	4	0
Cn1c(N2CCO[C@@H](c3ccc(F)cc3)C2)nc(-c2ccncn2)cc1=O (10 µM)	inactive: 0	inactive: 0	inactive: 0	inactive: 0	inactive: 0	inactive: 0	inactive: 0	inactive: 0	0	0
CC1(C)C=Cc2c(ccc(C(=O)/C=C/c3ccc(O)cc3)c2O)O1 [4-Hydroxylonchocarpin] (10 µM)	inactive: 0	inactive: 0	inactive: 0	inactive: 0	inactive: 0	inactive: 0	inactive: 0	inactive: 0	0	0
CC(C)=CCC[C@](C)(O[C@@H]1O[C@H](CO[C@@H]2O[C@H](CO)[C@@H](O)[C@H](O)[C@H]2O)[C@@H](O)[C@H](O)[C@H]1O)[C@H]1CC[C@]2(C)[C@@H]1[C@H](O)C[C@@H]1[C@@]3(C)CC[C@H](O[C@@H]4O[C@H](CO)[C@@H](O)[C@H](O)[C@H]4O[C@@H]4O[C@H](CO)[C@@H](O)[C@H](O)[C@H]4O)C(C)(C)[C@@H]3CC[C@]12C [Ginsenoside Rb1] (10 µM)	inactive: 0	inactive: 0	inactive: 0	inactive: 0	inactive: 0	inactive: 0	inactive: 0	inactive: 0	0	0
CC(C)(C)S(=O)(=O)c1cc2c(Nc3ccc4scnc4c3)ncnc2cc1OCCOP(=O)(O)O (2 µM)	inactive: 0	inactive: 0	inactive: 0	inactive: 0	inactive: 0	inactive: 0	inactive: 0	inactive: 0	0	0
Cc1ccc(C2CC(=O)NC(SCC(=O)Nc3nccs3)=C2C#N)cc1 (stereo not given) [Necrostatin-34] (10 µM)	inactive: 0	inactive: 0	inactive: 0	inactive: 0	inactive: 0	inactive: 0	inactive: 0	inactive: 0	0	0
CCn1c(N)c(C(=O)NC)c(=O)c2ccc(C#CC(C)(O)COC)nc21 (stereo not given) (10 µM)	inactive: 0	inactive: 0	inactive: 0	inactive: 0	inactive: 0	inactive: 0	inactive: 0	inactive: 0	0	0
C=CC(=O)N1CCC(c2ccc(C(N)=O)c(-c3ccc(Oc4ccccc4)cc3)n2)CC1 [Orelabrutinib] (2.5 µM)	inactive: 0	inactive: 0	inactive: 0	inactive: 0	inactive: 0	inactive: 0	inactive: 0	inactive: 0	0	0
CCOc1cc(N2CCC(O)CC2)ccc1Nc1ncc2c(n1)N(C1CCCC1)CCC(=O)N2C (2.5 µM)	inactive: 0	inactive: 0	inactive: 0	inactive: 0	inactive: 0	inactive: 0	inactive: 0	inactive: 0	0	0
COc1ccc(Cl)cc1N(CC(=O)Nc1ccc2c(c1)OCO2)S(=O)(=O)c1ccccc1 (2.5 µM)	inactive: 0	inactive: 0	inactive: 0	inactive: 0	inactive: 0	inactive: 0	inactive: 0	inactive: 0	0	0
CN1CCN(c2ccc(-n3cc(-c4ccncc4OCC4CCNCC4)cn3)cc2)CC1 [MELK-8a (hydrochloride)] (10 µM)	inactive: 0	inactive: 0	inactive: 0	inactive: 0	inactive: 0	inactive: 0	inactive: 0	inactive: 0	4	0
Fc1ccc(-c2nc3n(c2-c2ccncc2)CCS3)cc1 (10 µM)	inactive: 0	inactive: 0	inactive: 0	inactive: 0	inactive: 0	inactive: 0	inactive: 0	inactive: 0	0	0
O=C(Nc1ccc(Cl)cc1)C1CN(C(=O)c2cccc(-c3ccco3)c2)CC(F)(F)C1 (stereo not given) (2.5 µM)	inactive: 0	inactive: 0	inactive: 0	inactive: 0	inactive: 0	inactive: 0	inactive: 0	inactive: 0	0	0
Nc1ccc(Sc2nc3ccccc3s2)c(Cl)c1 [KRAS inhibitor-9] (10 µM)	inactive: 0	inactive: 0	inactive: 0	inactive: 0	inactive: 0	inactive: 0	inactive: 0	inactive: 0	0	0
CC(C)n1cnc2c(Nc3cccc(Cl)c3)nc(N[C@H]3CCCC[C@@H]3N)nc21 (2.5 µM)	inactive: 0	inactive: 0	inactive: 0	inactive: 0	inactive: 0	inactive: 0	inactive: 0	inactive: 0	0	0
COc1ccc(CN2CCC(c3ccc4nc(C(=O)N5CCN(Cc6ccc(C(F)(F)F)cc6)CC5)[nH]c4c3)CC2)cn1 (2.5 µM)	inactive: 0	inactive: 0	inactive: 0	inactive: 0	inactive: 0	inactive: 0	inactive: 0	inactive: 0	0	0
Cc1ccc2c(NS(=O)(=O)c3ccccc3Cl)cccc2c1Oc1ncccc1-c1ccnc(N[C@H]2CCCNC2)n1 (2.5 µM)	inactive: 0	inactive: 0	inactive: 0	inactive: 0	inactive: 0	inactive: 0	inactive: 0	inactive: 0	0	0
Cc1ccc(NC(=O)N2CCN(c3nc(N)nc4sc(-c5cccnc5)nc34)CC2)cc1 [PI4KIII beta inhibitor 3] (10 µM)	inactive: 0	inactive: 0	inactive: 0	inactive: 0	inactive: 0	inactive: 0	inactive: 0	inactive: 0	0	0
COc1cc2nc(-c3cc(F)ccc3O)nc(N[C@@H]3CNC[C@H]3C(C)(C)O)c2cc1OC (2.5 µM)	inactive: 0	inactive: 0	inactive: 0	inactive: 0	inactive: 0	inactive: 0	inactive: 0	inactive: 0	0	0
Cc1nc2c(NCc3cccc(S(C)(=O)=O)c3)nccn2c1-c1ccc(O)c(F)c1 (10 µM)	inactive: 0	inactive: 0	inactive: 0	inactive: 0	inactive: 0	inactive: 0	inactive: 0	inactive: 0	0	0
Cc1n[nH]c2ncc(C(=O)N3CCC[C@H]3c3ccc(Cl)cc3)cc12 (10 µM)	inactive: 0	inactive: 0	inactive: 0	inactive: 0	inactive: 0	inactive: 0	inactive: 0	inactive: 0	0	0
Cc1nn(CC(F)(F)F)cc1Nc1ncc(Br)c(NCc2ccc(S(N)(=O)=O)cc2)n1 (10 µM)	inactive: 0	inactive: 0	inactive: 0	inactive: 0	inactive: 0	inactive: 0	inactive: 0	inactive: 0	0	0

Single entries from the results shown.
`Nc1ccc(Sc2nc3ccccc3s2)c(Cl)c1` [KRAS inhibitor-9] (10 µM) | kinase-Nluc reporter destabilization hit call (SYK): inactive: 0
`COc1ccc(Cl)cc1N(CC(=O)Nc1ccc2c(c1)OCO2)S(=O)(=O)c1ccccc1` (2.5 µM) | kinase-Nluc reporter destabilization hit call (YES1): inactive: 0
